These are yes or no findings as the source states them, for the method shown. In cells and extracts the contact can be indirect. Binding can be weak; no strength is given. Sequences can lack the tags named with a protein.

In this assay the target is T1, MOCS3-EGFP^1–157 fusion (human) (UniProt O95396).
T1 sequence: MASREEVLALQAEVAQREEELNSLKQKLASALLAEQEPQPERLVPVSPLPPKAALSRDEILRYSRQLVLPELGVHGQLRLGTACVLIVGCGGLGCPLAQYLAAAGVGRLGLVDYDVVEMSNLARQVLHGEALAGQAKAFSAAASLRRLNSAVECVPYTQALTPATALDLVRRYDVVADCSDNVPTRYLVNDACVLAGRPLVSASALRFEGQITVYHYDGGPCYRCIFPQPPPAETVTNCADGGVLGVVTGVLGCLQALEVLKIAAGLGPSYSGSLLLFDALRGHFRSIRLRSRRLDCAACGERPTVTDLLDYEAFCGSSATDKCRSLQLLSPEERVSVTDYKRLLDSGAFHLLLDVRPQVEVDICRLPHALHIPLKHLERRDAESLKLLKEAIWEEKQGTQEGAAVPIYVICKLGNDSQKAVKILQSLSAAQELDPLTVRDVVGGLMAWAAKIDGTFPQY
The experiment in a line: split reporter; split-EGFP complementation (EGFP 1-157 and EGFP 158-238, both fused C-terminally) in transiently cotransfected HeLa cells, fixed 12 h after transfection, confocal microscopy.

As to “NFS1-EGFP^158–238 fusion (human) (enzyme)”, the binding result was “binds”.

For the origin of these results see publication PMC3625234, “The L-Cysteine Desulfurase NFS1 Is Localized in the Cytosol where it Provides the Sulfur for Molybdenum Cofactor Biosynthesis in Humans” (PLoS ONE, 2013).
